Reference: the supplement of paper PMC8728848
This is one part of the list.

Columns and labels:
Experiment in all cases: glycan array binding signal (z-score within array); higher = stronger binding
Conditions in all cases: glycan notation: IUPAC condensed, linker removed
[1] = target: Neu5Ac(a2-3)Gal(b1-4)GlcNAc(b1-3)Gal(b1-4)[Fuc(a1-3)]GlcNAc
How it was run: (§1)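 The Consortium for Functional Glycomics database supplied 3228 glycan arrays, of which those lacking an available protein sequence were dropped. The binding signal, a within-array Z-score, was averaged across arrays of the same protein sequence and across linkers. Negative scores can be read as non-binding.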

[2] = target: Neu5Ac(a2-3)Gal(b1-4)GlcNAc(b1-3)GalNAc
How it was run: as §1

[3] = target: Neu5Ac(a2-3)Gal(b1-4)GlcNAc(b1-6)[Gal(b1-3)]GalNAc
How it was run: as §1

[4] = target: Neu5Ac(a2-3)Gal(b1-4)GlcNAc(b1-6)[Neu5Ac(a2-3)Gal(b1-3)]GalNAc
How it was run: as §1

[5] = target: Neu5Ac(a2-3)Gal(b1-4)GlcNAc6S
How it was run: as §1

[6] = target: Neu5Ac(a2-3)Gal(b1-4)[Fuc(a1-3)]GlcNAc
How it was run: as §1

[7] = target: Neu5Ac(a2-3)Gal(b1-4)[Fuc(a1-3)]GlcNAc(b1-3)Gal
How it was run: as §1

[8] = target: Neu5Ac(a2-3)Gal(b1-4)[Fuc(a1-3)]GlcNAc(b1-3)Gal(b1-4)GlcNAc
How it was run: as §1

[9] = target: Neu5Ac(a2-3)Gal(b1-4)[Fuc(a1-3)]GlcNAc(b1-3)Gal(b1-4)[Fuc(a1-3)]GlcNAc(b1-3)Gal(b1-4)[Fuc(a1-3)]GlcNAc
How it was run: as §1

[10] = target: Neu5Ac(a2-3)Gal(b1-4)[Fuc(a1-3)]GlcNAc(b1-6)[Gal(b1-3)]GalNAc
How it was run: as §1

[11] = target: Neu5Ac(a2-3)Gal(b1-4)[Fuc(a1-3)]GlcNAc(b1-6)[Neu5Ac(a2-3)Gal(b1-3)]GalNAc
How it was run: as §1

[12] = target: Neu5Ac(a2-3)Gal(b1-4)[Fuc(a1-3)]GlcNAc6S
How it was run: as §1

[13] = target: Neu5Ac(a2-3)Gal6S(b1-4)GlcNAc
How it was run: as §1

[14] = target: Neu5Ac(a2-3)Gal6S(b1-4)[Fuc(a1-3)]GlcNAc
How it was run: as §1

[15] = target: Neu5Ac(a2-3)GalNAc
How it was run: as §1

[16] = target: Neu5Ac(a2-3)GalNAc(b1-4)GlcNAc
How it was run: as §1

[17] = target: Neu5Ac(a2-3)[GalNAc(b1-4)]Gal(b1-4)Glc
How it was run: as §1

[18] = target: Neu5Ac(a2-3)[GalNAc(b1-4)]Gal(b1-4)GlcNAc
How it was run: as §1

[19] = target: Neu5Ac(a2-3)[Neu5Ac(a2-6)]GalNAc
How it was run: as §1

[20] = target: Neu5Ac(a2-6)Gal
How it was run: as §1

[21] = target: Neu5Ac(a2-6)Gal(b1-4)Glc
How it was run: as §1

[22] = target: Neu5Ac(a2-6)Gal(b1-4)GlcNAc
How it was run: as §1

[23] = target: Neu5Ac(a2-6)Gal(b1-4)GlcNAc(b1-2)Man(a1-3)Man(b1-4)GlcNAc(b1-4)GlcNAc
How it was run: as §1

[24] = target: Neu5Ac(a2-6)Gal(b1-4)GlcNAc(b1-2)Man(a1-3)[Gal(b1-4)GlcNAc(b1-2)Man(a1-6)]Man(b1-4)GlcNAc(b1-4)GlcNAc
How it was run: as §1

[25] = target: Neu5Ac(a2-6)Gal(b1-4)GlcNAc(b1-2)Man(a1-3)[GlcNAc(b1-2)Man(a1-6)]Man(b1-4)GlcNAc(b1-4)GlcNAc
How it was run: as §1

[26] = target: Neu5Ac(a2-6)Gal(b1-4)GlcNAc(b1-2)Man(a1-3)[GlcNAc(b1-2)Man(b1-4)GlcNAc(b1-2)Man(a1-6)]Man(b1-4)GlcNAc(b1-4)GlcNAc
How it was run: as §1

[27] = target: Neu5Ac(a2-6)Gal(b1-4)GlcNAc(b1-2)Man(a1-3)[Man(a1-6)]Man(b1-4)GlcNAc(b1-4)GlcNAc
How it was run: as §1

[28] = target: Neu5Ac(a2-6)Gal(b1-4)GlcNAc(b1-2)Man(a1-3)[Neu5Ac(a2-6)Gal(b1-4)GlcNAc(b1-2)Man(a1-6)]Man(b1-4)GlcNAc(b1-4)GlcNAc
How it was run: as §1

[29] = target: Neu5Ac(a2-6)Gal(b1-4)GlcNAc(b1-2)Man(a1-6)Man(b1-4)GlcNAc(b1-4)GlcNAc
How it was run: as §1

[30] = target: Neu5Ac(a2-6)Gal(b1-4)GlcNAc(b1-2)Man(a1-6)[Gal(b1-4)GlcNAc(b1-2)Man(a1-3)]Man(b1-4)GlcNAc(b1-4)GlcNAc
How it was run: as §1

[31] = target: Neu5Ac(a2-6)Gal(b1-4)GlcNAc(b1-2)Man(a1-6)[GlcNAc(b1-2)Man(a1-3)]Man(b1-4)GlcNAc(b1-4)GlcNAc
How it was run: as §1

[32] = target: Neu5Ac(a2-6)Gal(b1-4)GlcNAc(b1-2)Man(a1-6)[Man(a1-3)]Man(b1-4)GlcNAc(b1-4)GlcNAc
How it was run: as §1

[33] = target: Neu5Ac(a2-6)Gal(b1-4)GlcNAc(b1-3)Gal(b1-3)GlcNAc
How it was run: as §1

[34] = target: Neu5Ac(a2-6)Gal(b1-4)GlcNAc(b1-3)Gal(b1-4)GlcNAc
How it was run: as §1

[35] = target: Neu5Ac(a2-6)Gal(b1-4)GlcNAc(b1-3)Gal(b1-4)GlcNAc(b1-3)Gal(b1-4)GlcNAc
How it was run: as §1

[36] = target: Neu5Ac(a2-6)Gal(b1-4)GlcNAc(b1-3)Gal(b1-4)[Fuc(a1-3)]GlcNAc(b1-3)Gal(b1-4)[Fuc(a1-3)]GlcNAc
How it was run: as §1

[37] = target: Neu5Ac(a2-6)Gal(b1-4)GlcNAc(b1-3)GalNAc
How it was run: as §1

[38] = target: Neu5Ac(a2-6)Gal(b1-4)GlcNAc6S
How it was run: as §1

B1: Spy 2007 (Streptococcus pyogenes), Q99XV3 (protein)
chain: MKKGFFLMAMVVSLVMIAGCDKSANPKQPTQGMSVVTSFYPMYAMTKEVSGDLNDVRMIQSGAGIHSFEPSVNDVAAIYDADLFVYHSHTLEAWARDLDPNLKKSKVDVFEASKPLTLDRVKGLEDMEVTQGIDPATLYDPHTWTDPVLAGEEAVNIAKELGRLDPKHKDSYTKNAKAFKKEAEQLTEEYTQKFKKVRSKTFVTQHTAFSYLAKRFGLKQLGISGISPEQEPSPRQLKEIQDFVKEYNVKTIFAEDNVNPKIAHAIAKSTGAKVKTLSPLEAAPSGNKTYLENLRANLEVLYQQLK
Q: B1 was tested. Which “glycan array binding signal (z-score)” value [1] did it give?
A: -0.027

Q: And the “glycan array binding signal (z-score)” value [2]?
A: -0.611

Q: What about the “glycan array binding signal (z-score)” value [3] of the same binder?
A: -0.443

Q: And the “glycan array binding signal (z-score)” value [4]?
A: 0.414

Q: What about the “glycan array binding signal (z-score)” value [5] of the same binder?
A: 1.47

Q: And the “glycan array binding signal (z-score)” value [6]?
A: 0.233

Q: And the “glycan array binding signal (z-score)” value [7]?
A: 1.49

Q: What about the “glycan array binding signal (z-score)” value [8] of the same binder?
A: 0.479

Q: And the “glycan array binding signal (z-score)” value [9]?
A: -0.893

Q: And the “glycan array binding signal (z-score)” value [10]?
A: 0.456

Q: What about the “glycan array binding signal (z-score)” value [11] of the same binder?
A: 0.152

Q: What about the “glycan array binding signal (z-score)” value [12] of the same binder?
A: 0.692

Q: And the “glycan array binding signal (z-score)” value [13]?
A: 0.163

Q: What about the “glycan array binding signal (z-score)” value [14] of the same binder?
A: 0.007

Q: And the “glycan array binding signal (z-score)” value [15]?
A: -0.385

Q: What about the “glycan array binding signal (z-score)” value [16] of the same binder?
A: 0.05

Q: And the “glycan array binding signal (z-score)” value [17]?
A: 0.84

Q: And the “glycan array binding signal (z-score)” value [18]?
A: 0.241

Q: What about the “glycan array binding signal (z-score)” value [19] of the same binder?
A: 0.302

Q: What about the “glycan array binding signal (z-score)” value [20] of the same binder?
A: 0.439

Q: What about the “glycan array binding signal (z-score)” value [21] of the same binder?
A: -0.237

Q: What about the “glycan array binding signal (z-score)” value [22] of the same binder?
A: 0.272

Q: And the “glycan array binding signal (z-score)” value [23]?
A: -0.568

Q: And the “glycan array binding signal (z-score)” value [24]?
A: -0.946

Q: What about the “glycan array binding signal (z-score)” value [25] of the same binder?
A: -0.752

Q: What about the “glycan array binding signal (z-score)” value [26] of the same binder?
A: -0.352

Q: And the “glycan array binding signal (z-score)” value [27]?
A: -0.459

Q: What about the “glycan array binding signal (z-score)” value [28] of the same binder?
A: 1.43

Q: And the “glycan array binding signal (z-score)” value [29]?
A: -0.514

Q: What about the “glycan array binding signal (z-score)” value [30] of the same binder?
A: 0.092

Q: And the “glycan array binding signal (z-score)” value [31]?
A: -0.911

Q: What about the “glycan array binding signal (z-score)” value [32] of the same binder?
A: -0.718

Q: And the “glycan array binding signal (z-score)” value [33]?
A: -0.35

Q: And the “glycan array binding signal (z-score)” value [34]?
A: -0.537

Q: What about the “glycan array binding signal (z-score)” value [35] of the same binder?
A: -0.381

Q: And the “glycan array binding signal (z-score)” value [36]?
A: 0.149

Q: And the “glycan array binding signal (z-score)” value [37]?
A: 1.02

Q: And the “glycan array binding signal (z-score)” value [38]?
A: 0.968
